The other results are listed elsewhere or left out.
Compound: Cc1cc(ccc1-c1ccccc1)C(=O)N1CCCN(CC1)C(=O)CCl [compound 10]
Experiment: probe-labelled cysteine peptide fold change vs DMSO (competition) (log2 fold change); higher = less target engagement (more negative = stronger competition)
Settings: THP-1, incubation time: 4 h
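Also: competitive profiling in live THP-1 cells: cysteine peptides tagged with an iodoacetamide desthiobiotin (IA-DTB) probe, intensity after compound treatment relative to DMSO-treated cells.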

Row | Target | probe-labelled cysteine peptide fold change (10 µM) | probe-labelled cysteine peptide fold change (50 µM)
1 | EPRS_P07814_350_IDMSSNNGCMR (UniProt P07814) | 0.136 | -0.176
2 | ELP3_Q9H9T3_456_CSEETFR (UniProt Q9H9T3) | 0.0674 | 0.137
3 | EIF5B_O60841_635_LRAPIICVLGHVDTGK (UniProt O60841) | -0.0617 | 0.0478
4 | ELF2_Q15723_470_IITIPATQLAQCQLQTK (UniProt Q15723) | -0.231 | -0.635
5 | ELANE_P08246_55_GGHFCGATLIAPNFVMSAAHCVANVNVR (UniProt P08246) | -0.344 | 0.16
6 | ELAVL1_Q15717_13_SNGYEDHMAEDCR (UniProt Q15717) | 0.863 | 1.62
7 | ELP2_Q6IA86_572_LYGHGYEIFCVTCNSSK (UniProt Q6IA86) | 0.0664 | 0.106
8 | EMB_Q6PCB8_180_NKPLISYVGDSTVLTCK (UniProt Q6PCB8) | -0.0607 | 0.0622
9 | EPN1_Q9Y6I3_205_EEADQPPSCGPEDDAQLQLALSLSR (UniProt Q9Y6I3) | -0.391 | -0.0992
10 | EIF3M_Q7L2H7_52_GAEISEENSEGGLHVDLAQIIEACDVCLKEDDK (UniProt Q7L2H7) | 0.27 | -0.275
11 | EPRS_P07814_1076_LGVENCYFPMFVSQSALEK (UniProt P07814) | 0.0262 | 0.245
12 | EPRS_P07814_1301+1309_VACVQVVIIPCGITNALSEEDK (UniProt P07814) | 0.0144 | 0.011
13 | EIF5_P55010_320_YLLHGLECVVAMHQAQLISK (UniProt P55010) | 0.219 | 0.119
14 | ELMO1_Q92556_411_EDKHECPFGR (UniProt Q92556) | -0.035 | -0.282
15 | EML2_O95834_301_ITQAVLGAHDGGVFGLCALR (UniProt O95834) | -0.0221 | 0.0215
16 | EIF3I_Q13347_81_LWDCETGK (UniProt Q13347) | -0.136 | -0.042
17 | ENOPH1_Q9UHY7_202_IADSIGCSTNNILFLTDVTR (UniProt Q9UHY7) | 0.0416 | -0.0738
18 | ERC1_Q8IUD2_1034_LYIGHLTTLCHDRDPLILR (UniProt Q8IUD2) | -0.00605 | -0.0575
19 | EPRS_P07814_623_VTWLAETTHALPIPVICVTYEHLITKPVLGK (UniProt P07814) | 0.0774 | 0.14
20 | EML3_Q32P44_615_FLTCGHDR (UniProt Q32P44) | -0.0338 | -0.246
21 | EMG1_Q92979_230_MVSISNYPLSAALTCAK (UniProt Q92979) | 0.0545 | 0.48

Row | Target | probe-labelled cysteine peptide fold change (10 µM) | probe-labelled cysteine peptide fold change (50 µM)
22 | ELP5_Q8TE02_61_SALCGEQVHILGCEVSEEEFR (UniProt Q8TE02) | 0.153 | 0.36
23 | EIF4A1_P60842_131_VVMALGDYMGASCHACIGGTNVR (UniProt P60842) | 0.196 | 0.0916
24 | EMC8_O43402_153_CRDPHHDYCEDWPEAQR (UniProt O43402) | 0.269 | 0.392
25 | ELAVL1_Q15717_13_SNGYEDHMAEDCRGDIGR (UniProt Q15717) | 0.257 | 0.232
26 | EIF4G1_Q04637_662_LQGINCGPDFTPSFANLGR (UniProt Q04637) | -0.232 | -0.045
27 | ELMO1_Q92556_663_HEYCIWTDGLNALLGK (UniProt Q92556) | 0.442 | 0.711
28 | EPRS_P07814_336+337_KGSQFGQSCCLR (UniProt P07814) | -0.117 | -0.698
29 | ELOF1_P60002_26+29_MTGTLETQFTCPFCNHEK (UniProt P60002) | -0.15 | -0.797
30 | EIF3J_O75822_207_ITNSLTVLCSEK (UniProt O75822) | -0.295 | 0.0198
31 | EPRS_P07814_692_RGFFICDQPYEPVSPYSCK (UniProt P07814) | -0.0837 | -0.277
32 | ELANE_P08246_198_QAGVCFGDSGSPLVCNGLIHGIASFVR (UniProt P08246) | 0.0325 | -0.102
33 | EIF4A2_Q14240_132_VILALGDYMGATCHACIGGTNVR (UniProt Q14240) | -0.0101 | 0.207
34 | ELMSAN1_Q6PJG2_442_AVSTGDCGQVLR (UniProt Q6PJG2) | -0.182 | -0.44
35 | EML2_O95834_163_AVCCVGFSK (UniProt O95834) | 0.0229 | -0.0945
36 | ELP2_Q6IA86_810_EAEGAEWLHFASCGEDHTVK (UniProt Q6IA86) | 0.0595 | -0.00523
37 | EIF4G3_O43432_1411_LDFIESDSPCSSEALSK (UniProt O43432) | -0.128 | -0.0326
38 | ERCC2_P18074_155_AQYQHDTSLPHCR (UniProt P18074) | 0.0924 | -0.0418
39 | ENG_P17813_549_TGTLSCTVALRPK (UniProt P17813) | -0.142 | -0.0378
40 | ENOSF1_Q7L5Y1_330_ALQFLQIDSCR (UniProt Q7L5Y1) | -0.0317 | -0.0285
41 | EPC2_Q52LR7_626_AQGSSTSDCMSK (UniProt Q52LR7) | -0.169 | -0.264
42 | ELAC2_Q9BQ52_421_EGPTLSVPMVQGECLLK (UniProt Q9BQ52) | -0.18 | -0.12

Row | Target | probe-labelled cysteine peptide fold change (10 µM) | probe-labelled cysteine peptide fold change (50 µM)
43 | EMC10_Q5UCC4_49_EGEACGTVGLLLEHSFEIDDSANFR (UniProt Q5UCC4) | 0.187 | 0.367
44 | EPHX2_P34913_154_MHFDFLIESCQVGMVKPEPQIYK (UniProt P34913) | -0.316 | -0.0625
45 | ELOF1_P60002_29_MTGTLETQFTCPFCNHEK (UniProt P60002) | 0.17 | -0.124
46 | EPS15_P42566_419_CAEEAQLISSLK (UniProt P42566) | -0.00196 | -0.102
47 | ERCC3_P19447_403_DKPIGCSVAISTYSMLGHTTK (UniProt P19447) | -0.099 | -0.436
48 | ENAH_Q8N8S7_62_KIQDHQVVINCAIPK (UniProt Q8N8S7) | -0.0964 | -0.196
49 | ELOB_Q15370_89_ADDTFEALCIEPFSSPPELPDVMK (UniProt Q15370) | -0.137 | 0.317
50 | EIF3I_Q13347_120_QMGYQCFVSFFDLR (UniProt Q13347) | 0.32 | 0.448
51 | EPRS_P07814_92+105_LSSCDSFTSTINELNHCLSLR (UniProt P07814) | 0.0532 | -0.00186
52 | EIF3I_Q13347_57_LGTYMGHTGAVWCVDADWDTK (UniProt Q13347) | 0.129 | 0.104
53 | EPRS_P07814_1453_IVQIPFCGEIDCEDWIKK (UniProt P07814) | 0.0129 | -0.913
54 | EP300_Q09472_1176+1177_KLEFSPQTLCCYGK (UniProt Q09472) | -0.315 | -0.974
55 | ERCC2_P18074_663_HAAQCVGR (UniProt P18074) | -0.0224 | -0.122
56 | EP300_Q09472_1250_RKNDTLDPELFVECTECGR (UniProt Q09472) | -0.101 | 0.125
57 | EIF4G3_O43432_930_NHDEESLECLCR (UniProt O43432) | 0.249 | 0.601
58 | ELP5_Q8TE02_52+61_SALCGEQVHILGCEVSEEEFREGFDSDINNR (UniProt Q8TE02) | -0.438 | -0.112
59 | EIF4B_P23588_457_EEDCHSPTSKPPKPDQPLK (UniProt P23588) | 0.0478 | -0.166
60 | ELOC_Q15369_74_VCMYFTYK (UniProt Q15369) | 0.128 | 0.0537
61 | EPS15L1_Q9UBC2_82_LVACAQSGHEVTLSNLNLSMPPPK (UniProt Q9UBC2) | 0.33 | 0.38
62 | EIF3J_O75822_207_KITNSLTVLCSEK (UniProt O75822) | -0.109 | -0.0404
63 | EOGT_Q5NDL2_61_HIATVCR (UniProt Q5NDL2) | 0.181 | 0.124

Row | Target | probe-labelled cysteine peptide fold change (10 µM) | probe-labelled cysteine peptide fold change (50 µM)
64 | ENDOV_Q8N8Q3_140_GFGVACHLGVLTDLPCVGVAK (UniProt Q8N8Q3) | 0.0963 | -0.0593
65 | EIF4A3_P38919_137_GLLALGDYMNVQCHACIGGTNVGEDIRK (UniProt P38919) | 0.154 | 0.0649
66 | EIF4G1_Q04637_821_CLMALK (UniProt Q04637) | 0.0226 | 0.0456
67 | ENTPD1_P49961_255_DYNVYTHSFLCYGK (UniProt P49961) | -0.0423 | 0.108
68 | EIF5_P55010_122_QTIGNSCK (UniProt P55010) | 0.156 | -0.22
69 | EIF3E_P60228_350_IHQCISINMLADK (UniProt P60228) | 0.0405 | 0.15
70 | EPS15L1_Q9UBC2_470_CQDETQMISSLK (UniProt Q9UBC2) | -0.0116 | -0.0866
71 | ELANE_P08246_151_LGNGVQCLAMGWGLLGR (UniProt P08246) | -0.368 | -0.481
72 | EP300_Q09472_364_QCNLPHCR (UniProt Q09472) | 0.248 | 0.155
73 | EIF5_P55010_99_FVLCPECENPETDLHVNPK (UniProt P55010) | 0.145 | -0.191
74 | EIF4G3_O43432_301_CELSSPR (UniProt O43432) | -0.377 | -0.35
75 | ELANE_P08246_254_SEDNPCPHPRDPDPASR (UniProt P08246) | -0.427 | -0.892
76 | EML2_O95834_110_CLAIHPDMVTIATGQVAGTTK (UniProt O95834) | -0.0841 | 0.0588
77 | EIF3K_Q9UBQ5_87_CMIDQAHQEERPIR (UniProt Q9UBQ5) | 0.181 | -0.134
78 | EPM2AIP1_Q7L775_465_IFDPDRYQMVICR (UniProt Q7L775) | -0.101 | -0.338
79 | EMG1_Q92979_134_FCGLMVQLLHK (UniProt Q92979) | 0.0226 | 0.308
80 | EPRS_P07814_660_NSKHEELMLGDPCLK (UniProt P07814) | -0.334 | -1.37
81 | EPRS_P07814_1148_LNQWCNVVR (UniProt P07814) | 0.0104 | 0.0139
82 | EIF4A3_P38919_137_GLLALGDYMNVQCHACIGGTNVGEDIR (UniProt P38919) | 0.0268 | -0.154
83 | ERCC4_Q92889_560_EPLTIIHPLLGCSDPYALTR (UniProt Q92889) | -0.615 | -0.524

Part of the list above in another layout:
Row,Target,probe-labelled cysteine peptide fold change (10 µM),probe-labelled cysteine peptide fold change (50 µM)
62,EIF3J_O75822_207_KITNSLTVLCSEK (UniProt O75822),-0.109,-0.0404
63,EOGT_Q5NDL2_61_HIATVCR (UniProt Q5NDL2),0.181,0.124
64,ENDOV_Q8N8Q3_140_GFGVACHLGVLTDLPCVGVAK (UniProt Q8N8Q3),0.0963,-0.0593
65,EIF4A3_P38919_137_GLLALGDYMNVQCHACIGGTNVGEDIRK (UniProt P38919),0.154,0.0649
66,EIF4G1_Q04637_821_CLMALK (UniProt Q04637),0.0226,0.0456
67,ENTPD1_P49961_255_DYNVYTHSFLCYGK (UniProt P49961),-0.0423,0.108

Source: the supplement of paper PMC12067093, “Discovery and optimisation of a covalent ligand for TRIM25 and its application to targeted protein ubiquitination” (Chemical Science, 2025)
